# PubChem BioAssay AID504805 – Drosophila RNAi Screening Center – 2011
# Assay: 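Fly genes required for export of polyadenylated mRNA from the nucleus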 (primary screen)
# Cell system: Drosophila S2R+ cells
# Reagents: long dsRNA against Drosophila genes, 0.25 µg dsRNA per well
# Timing: 4 days
# Detection: 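Microscope images of cells stained for poly(A) RNA with a fluorescent oligo-dT probe and for DNA, assessed visually, with a phenotype description given for each replicate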
# Only reagents picked out of a larger screen are listed. 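Phenotypes are words from visual inspection of images, not measured scores.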 Names joined by + are all predicted targets of the reagent. No sequences are given here.
gene,dsRNA,"phenotype, replicate 1","phenotype, replicate 2"
Ae2 (Anion exchanger 2),DRSC10969,poly(A) RNA held back in the nucleus,
cpo + CG42457 (retired record),DRSC15327,poly(A) RNA held back in the nucleus,
Bx42,DRSC17743,poly(A) RNA held back in the nucleus,poly(A) RNA held back in the nucleus
RpL32 (Ribosomal protein L32),DRSC16835,poly(A) RNA held back in the nucleus,
Cap-H2 (Chromosome associated protein H2),DRSC14908,poly(A) RNA held back in the nucleus,
RpL39 (Ribosomal protein L39),DRSC04651,RNA gathered at the nuclear rim,
Paris (Parkin Interacting Substrate),DRSC00451,poly(A) RNA held back in the nucleus,
CG3081,DRSC18571,poly(A) RNA held back in the nucleus,
Acyp (Acylphosphatase),DRSC01861,poly(A) RNA held back in the nucleus,
sip1 (septin interacting protein 1),DRSC03609,poly(A) RNA held back in the nucleus,
sip1 (septin interacting protein 1),DRSC22648,poly(A) RNA held back in the nucleus,
Gmppb (GDP-mannose pyrophosphorylase B),DRSC12169,poly(A) RNA held back in the nucleus,
CG6621,DRSC16076,poly(A) RNA held back in the nucleus,
CG1835,DRSC20560,poly(A) RNA held back in the nucleus,
ric8b + ric8a,DRSC18104,poly(A) RNA held back in the nucleus,poly(A) RNA held back in the nucleus
Chmp1 (Charged multivesicular body protein 1),DRSC10401,poly(A) RNA held back in the nucleus,
CG18599,DRSC22585,poly(A) RNA held back in the nucleus,
CR31824 (pseudo),DRSC01517,poly(A) RNA held back in the nucleus,
mim (missing-in-metastasis),DRSC05013,poly(A) RNA held back in the nucleus,
Ddx56 (DEAD-box helicase 56),DRSC20567,poly(A) RNA held back in the nucleus,
CG3592,DRSC18315,poly(A) RNA held back in the nucleus,
ClC-a (Chloride channel-a),DRSC14947,poly(A) RNA held back in the nucleus,
mam (mastermind),DRSC07648,clumps in the cytoplasm,poly(A) RNA held back in the nucleus
CG31183,DRSC15554,poly(A) RNA held back in the nucleus,
mbl (muscleblind),DRSC06449,poly(A) RNA held back in the nucleus,
dUTPase (Deoxyuridine triphosphatase),DRSC01998,poly(A) RNA held back in the nucleus,
pico,DRSC19430,poly(A) RNA held back in the nucleus,
CG3918,DRSC18331,poly(A) RNA held back in the nucleus,poly(A) RNA held back in the nucleus
CG6153,DRSC02935,poly(A) RNA held back in the nucleus,
Prim2 (DNA primase subunit 2),DRSC11610,poly(A) RNA held back in the nucleus,
Pcif1 (Phosphorylated CTD-interacting factor 1),DRSC11655,poly(A) RNA held back in the nucleus,
CG44838,DRSC10371,poly(A) RNA held back in the nucleus,
trem (trade embargo),DRSC15575,poly(A) RNA held back in the nucleus,
Papst2 (PAPS transporter 2),DRSC10924,poly(A) RNA held back in the nucleus,
stan (starry night),DRSC05234,poly(A) RNA held back in the nucleus,poly(A) RNA held back in the nucleus
Ndc80,DRSC20221,poly(A) RNA held back in the nucleus,
CG12590,DRSC12216,poly(A) RNA held back in the nucleus,
dati (datilografo),DRSC17153,poly(A) RNA held back in the nucleus,
CG42258,DRSC23161,poly(A) RNA held back in the nucleus,
CG12964,DRSC06266,poly(A) RNA held back in the nucleus,poly(A) RNA held back in the nucleus
twi (twist),DRSC04720,poly(A) RNA held back in the nucleus,
dup (double parked),DRSC07088,,cells look to be dying
stg (string),DRSC17071,poly(A) RNA held in nucleus; cells enlarged,
RpS14b (Ribosomal protein S14b),DRSC18711,poly(A) RNA held back in the nucleus,poly(A) RNA held back in the nucleus
eIF4G2 (eukaryotic translation initiation factor 4G2),DRSC14207,poly(A) RNA held back in the nucleus,
stv (starvin),DRSC10111,poly(A) RNA held back in the nucleus,
RpL37-1 (Ribosomal protein L37-1),DRSC21646,poly(A) RNA held back in the nucleus,
CG32767,DRSC18386,poly(A) RNA held back in the nucleus,
SLO2 (slowpoke 2),DRSC06219,poly(A) RNA held back in the nucleus,
ChT (Choline transporter),DRSC16296,poly(A) RNA held back in the nucleus,

Reprinted from the listing, 8 entries:
gene,dsRNA,"phenotype, replicate 1","phenotype, replicate 2"
Ae2 (Anion exchanger 2),DRSC10969,poly(A) RNA held back in the nucleus,
cpo + CG42457 (retired record),DRSC15327,poly(A) RNA held back in the nucleus,
Bx42,DRSC17743,poly(A) RNA held back in the nucleus,poly(A) RNA held back in the nucleus
RpL32 (Ribosomal protein L32),DRSC16835,poly(A) RNA held back in the nucleus,
Cap-H2 (Chromosome associated protein H2),DRSC14908,poly(A) RNA held back in the nucleus,
RpL39 (Ribosomal protein L39),DRSC04651,RNA gathered at the nuclear rim,
Paris (Parkin Interacting Substrate),DRSC00451,poly(A) RNA held back in the nucleus,
CG3081,DRSC18571,poly(A) RNA held back in the nucleus,

The listing continues:
gene,dsRNA,"phenotype, replicate 1","phenotype, replicate 2"
RpS14a (Ribosomal protein S14a),DRSC18710,poly(A) RNA held back in the nucleus,
Sol1,DRSC15271,poly(A) RNA held back in the nucleus,
CG10510,DRSC11614,poly(A) RNA held back in the nucleus,
CG4629,DRSC00659,poly(A) RNA held back in the nucleus,
CG2321,DRSC15439,poly(A) RNA held back in the nucleus,
Dys (Dystrophin),DRSC13360,poly(A) RNA held back in the nucleus,
Est-Q (Esterase Q),DRSC11835,poly(A) RNA held back in the nucleus,
Roc1a (Regulator of cullins 1a),DRSC18483,poly(A) RNA held back in the nucleus,
smog,DRSC23053,poly(A) RNA held back in the nucleus,
alphaTub84B (alpha-Tubulin at 84B),DRSC12622,poly(A) RNA held back in the nucleus,
CG2063,DRSC06811,poly(A) RNA held back in the nucleus,poly(A) RNA held back in the nucleus
tau,DRSC14569,poly(A) RNA held back in the nucleus,
Pitslre,DRSC23346,poly(A) RNA held back in the nucleus,poly(A) RNA held back in the nucleus
lola (longitudinals lacking),DRSC05220,poly(A) RNA held back in the nucleus,
CG10339,DRSC04065,poly(A) RNA held back in the nucleus,
cas (castor),DRSC12373,poly(A) RNA held back in the nucleus,
CG15093,DRSC06522,poly(A) RNA held back in the nucleus,
CG31904 + CG13796,DRSC22161,poly(A) RNA held back in the nucleus,
RpL27 (Ribosomal protein L27),DRSC15638,poly(A) RNA held back in the nucleus,
Csk (C-terminal Src kinase),DRSC15223,poly(A) RNA held back in the nucleus,
Fs (Follistatin),DRSC06259,poly(A) RNA held back in the nucleus,
CG12691,DRSC17880,poly(A) RNA held back in the nucleus,
a (arc),DRSC04667,poly(A) RNA held back in the nucleus,
CG12071,DRSC14471,poly(A) RNA held back in the nucleus,
Or82a (Odorant receptor 82a),DRSC11996,poly(A) RNA held back in the nucleus,
